Biological target: [^3 H]-Nitrendipine-labeled calcium channels
Assay: [3H]-nitrendipine binding assay in rat brain membranes (Ca2+-antagonistic activity)
Conditions: mean of 3 experiments, 95% confidence limits in parenthesis on next line
Method: 1. Ca^2+ -Antagonistic activity:
Ca^2+ -Antagonistic activity of the compound was evaluated in [^3 H]-nitrendipine ([^3 H]-NIT) binding assay.

`COC(=O)C1=C(C)NC(C)=C(C(=O)OC)C1c1ccccc1[N+](=O)[O-]` [Nifedipine, reference compound] was tested. Which Ki did it give?
The Ki was 4.6 nM.
